{
  "source": "PubChem BioAssay AID1347075",
  "about": "(National Center for Advancing Translational Sciences (NCATS), 2019)",
  "note": "Among all 400,000 compounds or so, about 5,500 (1.4%) were called active. Inconclusive results, whose numbers are uncertain, are shown with a selection of clear calls. Calls follow the shape of the dose curve; as a rule, active = well fitted cell-killing curve with a large enough effect; inconclusive = small, poorly fitted or top-dose-only effect, or effect the other way; inactive = flat fitted curve, though single readings scatter. Potencies beside an inconclusive call are fits to weak or partial responses and may not hold up. % is scaled to controls: 0 for no effect and ±100 for the full control effect; potency is read from the fitted curve at half-maximal effect.",
  "data": [
    {"experiment": "qHTS assay for MDR1-selective chemotherapeutics: Primary screen using the parental adenocarcinoma cell KB-3-1; also: nearly all actives have a fitted effect of over 60% in size", "settings": "KB-3-1 viability, CellTiter-Glo ATP luminescence, 72 h; activity change, negative = cytotoxic: at 46.1 µM (top of the series)", "in_short": "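KB-3-1 parental drug-naive adenocarcinoma cells in DMEM/10% FBS, incubated 72 h at 37 C with pin-transferred compounds across a concentration series. Viability by CellTiter-Glo luminescence; concentration-response curves fitted after normalization.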", "values": [
      {"smiles": "N#CC1=C(N)CCC1", "Potency": "inactive"},
      {"smiles": "COc1cccc(C(=O)NC2CC3CCCC(C2)N3CC(=O)Nc2ccccc2C(F)(F)F)c1", "note": "(stereo unspecified)", "activity change, negative = cytotoxic": "inconclusive: -48.8% [cytotoxic]"},
      {"smiles": "CCOc1ccc(N(CC(=O)N/N=C/c2cc([N+](=O)[O-])ccc2Cl)S(C)(=O)=O)cc1", "Potency": "inactive"},
      {"smiles": "COc1ccc(CC(=O)Nc2nc3ccccc3s2)cc1S(=O)(=O)N1CCOCC1", "Potency": "inactive"},
      {"smiles": "Cc1ccccc1CN(C)Cc1cc(=O)oc2c(C)c(C)ccc12", "Potency": "inconclusive: 9.2 µM [cytotoxic, partial curve, poor fit]"},
      {"smiles": "CCOc1ccccc1NC(=O)C(NCCc1ccc(OC)cc1)c1ccccc1", "note": "(stereo unspecified)", "Potency": "inconclusive: 20.6 µM [cytotoxic, single point]"},
      {"smiles": "CCCOc1ccc(C(=O)CCN2CCCCC2)cc1", "Potency": "inconclusive: 29.1 µM [cytotoxic, single point]"},
      {"smiles": "CCCC(=O)N/C(N)=N/c1nc(C)c2ccccc2n1", "Potency": "inconclusive: 20.6 µM [cytotoxic, partial curve, poor fit]"},
      {"smiles": "CC(C)OCCCn1c(=S)[nH]c2ncccc2c1=O", "Potency": "inactive"},
      {"smiles": "NC(=O)c1cccc(-c2cnc(N)c(C(=O)c3cccnc3)n2)c1", "Potency": "inconclusive: 29.1 µM [cytotoxic, single point]"},
      {"smiles": "Cc1cccc(NC(=O)COc2nsnc2N2CCOCC2)c1", "Potency": "inconclusive: 29.1 µM [cytotoxic, single point]"},
      {"smiles": "Cc1nnc(N/N=C/c2ccc(Br)cc2)n1N", "Potency": "inactive"},
      {"smiles": "O=C(CNC(=O)C1COc2ccccc2O1)N/N=C/c1ccc([N+](=O)[O-])cc1", "note": "(stereo unspecified)", "Potency": "inactive"},
      {"smiles": "O=C(Cc1ccc(NC(=O)C2CCCN(C(=O)CCc3ccccc3)C2)cc1)Nc1cccc(C(=O)N2CCCC2)c1", "note": "(stereo unspecified)", "Potency": "inconclusive: 29.1 µM [cytotoxic, single point]"},
      {"smiles": "O=c1[nH]cnc2n[nH]nc12", "Potency": "active: 1.46 µM"},
      {"smiles": "COc1ccc2c(c1)CCC(C)N2C(=O)C(=O)c1c[nH]c2ccccc12", "note": "(stereo unspecified)", "Potency": "inconclusive: 29.1 µM [cytotoxic, single point]"},
      {"smiles": "O=C(CCl)NC(Cc1ccccc1)c1ccccc1", "note": "(stereo unspecified)", "Potency": "inconclusive: 29.1 µM [cytotoxic, single point]"},
      {"smiles": "C(=C\\c1ccccc1)/CN1CCN(C(c2cc3ccccc3o2)c2nnnn2C2CCCC2)CC1", "note": "(stereo unspecified)", "Potency": "inconclusive: 29.1 µM [cytotoxic, single point]"},
      {"smiles": "COc1ccc(Cc2nn3c(-c4ccccc4OC)nnc3s2)cc1", "Potency": "inactive"},
      {"smiles": "COC(=O)N/N=C/c1ccc([N+](=O)[O-])o1", "Potency": "inconclusive: 18.4 µM [cytotoxic, single point]"},
      {"smiles": "O=c1[nH]c(=O)n(C2CC(O)C(CO)O2)cc1Br", "note": "(stereo unspecified)", "Potency": "inactive"},
      {"smiles": "Cc1ccc2nc(-c3ccc4c(c3)OCCO4)cc(C(=O)O)c2c1", "Potency": "inconclusive: 23.1 µM [cytotoxic, single point]"},
      {"smiles": "COc1ccc(CN2CCc3ccc(NC(=O)CCc4ccccc4OC)cc3C2)c(O)c1", "Potency": "inconclusive: 20.6 µM [cytotoxic, single point]"},
      {"smiles": "Clc1cccc(Cl)c1/C=C/c1nc2ccccc2[nH]1", "Potency": "inconclusive: 29.1 µM [cytotoxic, single point]"},
      {"smiles": "COc1cccc(C2CC3(CC(C)(C)NC(=S)N3)Oc3cc(O)ccc32)c1", "note": "(stereo unspecified)", "activity change, negative = cytotoxic": "inconclusive: 30.7%"},
      {"smiles": "CCOc1ccc(OCc2ccc(C(=O)N/N=C(\\C)c3ccccn3)cc2)cc1", "Potency": "inconclusive: 5.17 µM [cytotoxic, full curve]"},
      {"smiles": "Cc1nc(N2CCc3ccccc3C2)[nH]c(=O)c1Cc1ccccc1", "Potency": "inactive"},
      {"smiles": "Cc1ccc(S(=O)(=O)c2cn(CC(=O)Nc3ccc4c(c3)OCO4)c3ccccc3c2=O)cc1C", "Potency": "inconclusive: 0.0058 µM [rising, full curve]"},
      {"smiles": "COC(=O)c1ccc(C(=O)N(Cc2ccccc2)c2ccccc2)cc1", "Potency": "inactive"},
      {"smiles": "CC(C)(C)C(=O)Nc1ccc2nc(SCC(=O)N3CCc4ccccc43)sc2c1", "activity change, negative = cytotoxic": "inconclusive: -48.8%"},
      {"smiles": "CSc1ccc(NC(=O)NCCCN2CCC(Cc3ccccc3)CC2)cc1", "Potency": "inactive"},
      {"smiles": "Cc1ccnc(NC(=O)CCC(=O)N(CC(=O)NC(C)(C)C)c2ccc3c(c2)OCCO3)c1", "Potency": "inconclusive: 29.1 µM [rising, single point]"},
      {"smiles": "CCOc1ccc(CCNC(=O)c2cccc(-n3c(C)nc4cccnc43)c2C)cc1", "Potency": "inconclusive: 20.6 µM [cytotoxic, single point]"},
      {"smiles": "CCc1ccccc1NC(=O)C(CC)Oc1ccccc1-c1nnc(-c2ccccc2)o1", "note": "(stereo unspecified)", "Potency": "active: 14.6 µM"},
      {"smiles": "Cc1c(NC(=O)c2noc3c2CCc2ccccc2-3)c(=O)n(-c2ccccc2)n1C", "Potency": "inactive"},
      {"smiles": "CCC(C)(C)NC(=O)CN(C(=O)c1ccc(N2CCCC2)nc1)c1ccc(F)cc1", "activity change, negative = cytotoxic": "inconclusive: -53.5%"},
      {"smiles": "COc1cccc(C#CC2=CC(=O)C[C@H](c3ccc(F)cc3)C2)c1", "Potency": "inconclusive: 20.6 µM [cytotoxic, single point]"},
      {"smiles": "COCCc1ccc(OC2(C)CCN(Cc3cccn3-c3nccs3)C2)cc1", "note": "(stereo unspecified)", "Potency": "inconclusive: 20.6 µM [cytotoxic, single point]"},
      {"smiles": "C=C(Br)COC(c1ccco1)[C@H](Cc1ccccc1)NC(=O)OC(C)(C)C", "note": "(stereo partly specified)", "Potency": "inconclusive: 23.1 µM [cytotoxic, single point]"},
      {"smiles": "COC(=O)c1ccc(-c2sc3nc(N4CCOCC4)c4c(c3c2N)CCCC4)o1", "Potency": "inconclusive: 32.6 µM [cytotoxic, single point]"},
      {"smiles": "O=c1c2c3c(sc2nc2n1CCCC2)CCCC3", "Potency": "inconclusive: 29.1 µM [cytotoxic, single point]"},
      {"smiles": "CCOCCCNC(=O)c1cc(=O)[nH]c2ccc(S(=O)(=O)N3CCCC3)cc12", "Potency": "inactive"},
      {"smiles": "COC(=O)c1ccc(N2CC3CNC(=O)C2(C(=O)OC)N3C)cc1", "note": "(stereo unspecified)", "Potency": "inconclusive: 11.6 µM [rising, partial curve, poor fit]"},
      {"smiles": "O=C(CSc1nc(-c2ccccc2)cc(C(F)(F)F)n1)NCc1ccco1", "Potency": "inconclusive: 0.0411 µM [cytotoxic, full curve]"},
      {"smiles": "CCc1ccc(C(=O)Nc2ccc(C)c(NS(C)(=O)=O)c2)cc1", "Potency": "inconclusive: 18.4 µM [cytotoxic, single point]"},
      {"smiles": "CC(C)Oc1ccc(CNC(=O)C2CCCCN2S(=O)(=O)c2ccc(F)cc2)cc1", "note": "(stereo unspecified)", "activity change, negative = cytotoxic": "inconclusive: -35.4% [cytotoxic]"}
    ]}
  ]
}
